# Assay results as given in patent publication US11912777.
# These are yes or no findings as the source states them, for the method shown. A result given as binding can be weak or reduced; the word gives no strength.
# B1: humanized antibody hu32-C (Hu32-H1/Hu32-L3) (antibody, human IgG1, kappa, V domains shown)
# VH: QVTLKESGPTLVKPTQTLTLTCTFSGFSLSTLGMGVGWIRQPPGKALEWLAHIWWDADKYYNPALKSRLTITKDTSKNQVVLTMTNMDPVDTATYYCARMTGTRYFDVWGQGTTVTVSS
# VL: DIQMTQSPSSLSASVGDRVTITCKASQNINKFIAWYQQKPGKVPKLLIHYTSTLQPGVPSRFSGSGSGSDYTLTISSLQPEDVATYYCLQYGVLWTFGGGTKVEIKR
# B2: humanized antibody hu3-E (Hu3-H3/Hu3-L1) (antibody, human IgG1, kappa, V domains shown)
# VH: QIQLVQSGAEVKKPGASVKVSCKASGYTFTTYGMSWVRQAPGQGLEWMGWIHTYSGVPTYADDFKGRFAFTLDTSTSTAYMELRSLRSDDTAVYYCARGLYGVDYWGQGTLVTVSS
# VL: EIVMTQSPATLSLSPGERATLSCKASENVVTYVSWYQQKPGQAPRLLIYGASNRYTGIPARFSGSGSATDFTLTISSLQPEDFAVYYCGQSYTYPYTFGQGTKLEIKR
# Columns and labels:
# TNFR2 [1] = assay: ELISA on coated TNFR2, positive control of the TNFR superfamily cross-binding test; upper panel
# TNFR2 [2] = assay: ELISA on coated TNFR2, positive control of the TNFR superfamily cross-binding test; lower panel
Binder,binding (TNFR2 [1]),binding (TNFR2 [2])
B1,binds,–
B2,–,binds
